The target of test [1] is Transforming acidic coiled-coil-containing protein 3 (TACC3), endogenous (human (endogenous in PLC/PRF/5 and Huh7)) (UniProt Q9Y6A5). Kind of test: co-IP; co-IP with western blotting in PLC/PRF/5 and Huh7 cells, endogenous proteins. In general terms: In western blotting, separated proteins are transferred to a membrane and probed.
Test [2] has as its target HA-tagged transforming acidic coiled-coil-containing protein 3 (TACC3) (UniProt Q9Y6A5). Kind of test: co-IP; co-IP with western blotting in HEK-293T cells, exogenous proteins.

The values below come from article PMC12391444.

Results are given in words; binding and its absence hold for the method and conditions named. Binding seen in cells or lysates may run through a third protein. Some results given as binding are weak or reduced against the parent protein; the word gives no strength.

In the case of “poly(A)-binding protein cytoplasmic 1 (PABPC1), endogenous (from UniProt P11940 1-636)”, in test [1], the binding entry is listed as “binds”. Take “poly(A)-binding protein cytoplasmic 1 (PABPC1), exogenous in HEK293T cells (from UniProt P11940 1-636)”: the binding result in test [2] is “binds”.
